According to patent US20230057904A1 (Chugai, published 2023):
Results are given in words; binding and its absence hold for the method and conditions named. Some binding calls cover weakened binding; strength is not graded here.

T1: human CLDN6 (Claudin-6) (human, UniProt P56747 1-220)
T1 construct: also called hCLDN6; human Claudin 6
T1 chain: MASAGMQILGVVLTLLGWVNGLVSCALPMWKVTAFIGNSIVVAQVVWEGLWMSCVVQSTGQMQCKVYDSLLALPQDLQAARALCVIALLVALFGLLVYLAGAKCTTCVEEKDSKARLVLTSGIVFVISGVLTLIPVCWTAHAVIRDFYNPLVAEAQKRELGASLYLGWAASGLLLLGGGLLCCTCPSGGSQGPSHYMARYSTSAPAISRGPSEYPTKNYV


Experiments:
human CLDN6 (Claudin-6) [1] = target: T1, human CLDN6 (Claudin-6); assay: flow cytometry on hCLDN6/BaF, MFI
human CLDN6 (Claudin-6) [2] = target: T1, human CLDN6 (Claudin-6); assay: flow cytometry (FCM) on hCLDN6/BaF cells, anti-human IgG PE secondary; MFI; antibody concentration not given
human CLDN6 (Claudin-6) [3] = target: T1, human CLDN6 (Claudin-6); assay: flow cytometry on hCLDN6/BaF, 15 micro g/ml
human CLDN6 (Claudin-6) [4] = target: T1, human CLDN6 (Claudin-6); assay: flow cytometry on hCLDN6/BaF (Ba/F3 transfectant), 15 micro g/ml antibody, Alexa Fluor 488 anti-human IgG; histogram against KLH/TR01
human CLDN6 (Claudin-6) [5] = target: T1, human CLDN6 (Claudin-6); assay: flow cytometry on FreeStyle 293-F transfectants, 10 micro g/mL
human CLDN6 (Claudin-6) [6] = target: T1, human CLDN6 (Claudin-6); assay: flow cytometry, FreeStyle 293-F transfectants expressing human CLDN6, 10 micro g/mL antibody, anti-human IgG Alexa Fluor 647; MFI

Binder | binding (human CLDN6 (Claudin-6) [1]) | binding (human CLDN6 (Claudin-6) [2]) | binding (human CLDN6 (Claudin-6) [3]) | binding (human CLDN6 (Claudin-6) [4]) | binding (human CLDN6 (Claudin-6) [5]) | binding (human CLDN6 (Claudin-6) [6])
antibody comprising designed VH 25H and AE3.20L (antibody, human IgG1, kappa, V domains shown) VH: QVQLVESGGGVVQPGRSLRLSCAASGFTFSSYTMSWVRQAPGQGLEWMGTISSGGGRTYYPDSVKGRFTISRDNSKNTLYLQMNSLRAEDTAVYYCARGDYRYDGFAYWGQGTLVTVSS VL: DIQMTQSPASLSASVGETVTITCRASENIDSYLAWYQQKQGKSPQLLVYASTLLVDGVPSRFSGSRSGTQFSLKINSLQSEDVARYYCQHYYSIPYTFGSGTKLEIKR | binds | binds | – | – | – | –
CS2961 (bispecific antibody, human IgG1, kappa, L234A L235A, N297A, also called 65HQ39E-SG1212/54L0532Q38K-SK1021//TR01 arm with SG1213/SK1017) heavy 1: QVQLVESGGGVVQPGGSLRLSCAASGFTFSSYTMSWVREAPGQGLEWMGTISSGGGRTYYPDSVKGRFTISRDNSKNTLYLQMNSLRDEDTAVYYCARGDYRYDGFAYWGEGTLVTVSSASTKGPSVFPLAPSSKSTSGGTAALGCLVEDYFPEPVTVSWNSGALTSGVHTFPAVLESSGLYSLSSVVTVPSSSLGTQTYICNVNHKPSNTKVDERVEPKSCDKTHTCPPCPAPEAAGGPKVFLFPPKPKDTLMISRTPEVTCVVVDVSHEDPEVKFNWYVDGVEVHNAKTKPREEQYASTYRVVSVLTVLHQDWLNGKEYKCKVSNKGLPSSIEKTISKAKGQPREPQVYTLPPSREEMTKNQVSLTCLVKGFYPSDIAVEWESNGQPENNYKTTPPVLDSDGSFFLYSKLTVDKSRWQQGNVFSCSVMHEALHNHYTQESLSLSP light 1: DIQMTQSPSSLSASVGDRVTITCRASYNIDSYLAWYQKKPGKAPELLIYYSTLLVDGVPDRFSGSRSGTDFTLTISSLQPEDFATYYCQHYYSIPYTFGQGTKVEIERTVAAPSVFIFPPSDKQLKSGTAKVVCLLNNFYPREAKVQWKVDNALQSGNSKESVTEQDSKDSTYSLSSTLTLSKADYEKHKVYACEVTHQGLSSPVTKSFNRGEC heavy 2: QVQLVESGGGVVQPGGSLRLSCAASGFTFSNAWMHWVRKAPGKGLEWVAQIKDKSQNYATYVAESVKGRFTISRADSKNSIYLQMNSLKTEDTAVYYCRYVHYAAGYGVDIWGQGTTVTVSSASTKGPSVFPLAPSSKSTSGGTAALGCLVKDYFPEPVTVSWNSGALTSGVHTFPAVLKSSGLYSLSSVVTVPSSSLGTQTYICNVNHKPSNTKVDKRVEPKSCDKTHTCPPCPAPEAAGGPKVFLFPPKPKDTLMISRTPEVTCVVVDVSHEDPEVKFNWYVDGVEVHNAKTKPREEQYASTYRVVSVLTVLHQDWLNGKEYKCKVSNKGLPSSIEKTISKAKGQPREPQVYTLPPSRKEMTKNQVSLTCLVKGFYPSDIAVEWESNGQPENNYKTTPPVLDSDGSFFLYSKLTVDKSRWQQGNVFSCSVMHEALHNHYTQKSLSLSP light 2: DIVMTQSPLSLPVTPGEPASISCRSSQPLVHSNRNTYLHWYQEKPGQAPRLLIYKVSNRFSGVPDRFSGSGSGTDFTLKISRVEAEDVGVYYCGQGTQVPYTFGQGTKLEIKRTVAAPSVFIFPPSDEQLKSGTAEVVCLLNNFYPREAKVQWKVDNALQSGNSEESVTEQDSKDSTYSLSSTLELSKADYEKHKVYACEVTHQGLSSPVTKSFNRGEC | – | – | binds | binds | – | –
AE3-20/TR01 (bispecific antibody, V domains shown, also called anti-CLDN6/CD3 bispecific antibody AE3-20/TR01; AE3.20H/AE3.20L//TR01) VH 1: EVKLVESGGGLVKPGGSLKLSCAASGFTFNSYTMSWVRQTPAKRLEWVVTISSGGGRTYYPDSVKGRFTISRDNARNTLYLQMSSLRSEDTAMYYCIRGDYRYDGFAYWGQGTLVTVST VL 1: DIQMTQSPASLSASVGETVTITCRASENIDSYLAWYQQKQGKSPQLLVYASTLLVDGVPSRFSGSRSGTQFSLKINSLQSEDVARYYCQHYYSIPYTFGSGTKLEIK VH 2: QVQLVESGGGVVQPGGSLRLSCAASGFTFSNAWMHWVRQAPGKGLEWVAQIKDKSQNYATYVAESVKGRFTISRADSKNSIYLQMNSLKTEDTAVYYCRYVHYAAGYGVDIWGQGTTVTVSS VL 2: DIVMTQSPLSLPVTPGEPASISCRSSQPLVHSNRNTYLHWYQQKPGQAPRLLIYKVSNRFSGVPDRFSGSGSGTDFTLKISRVEAEDVGVYYCGQGTQVPYTFGQGTKLEIK | – | – | – | – | binds | binds
CDA0013/TR01 (bispecific antibody, V domains shown, CDA0013 is rabbit-derived; IgG format by Fab arm exchange, silent Fc; also called anti-CLDN6/CD3 bispecific antibody CDA0013/TR01) VH 1: QSLEESGGRLVTPGTPLTLTCTVSGIDLNNYGVGWVRQPPGKGLEWIGYINALGSAYYASWAKGRFTISRTSTTVDLKITSPTTEDTATYFCARVRYLYIGGGGYWIDRLDLWGQGTLVTVSS VL 1: DVVMTQTPASVEAAVGDTVTIKCQASQSISSCLSWYQQKPGQPPKLLIYYASTLASGVPSRFSGSGSGTEFTLTISGLQCDDAATYYCLGVVSYVSADGGFGGGTEVVVK VH 2: QVQLVESGGGVVQPGGSLRLSCAASGFTFSNAWMHWVRQAPGKGLEWVAQIKDKSQNYATYVAESVKGRFTISRADSKNSIYLQMNSLKTEDTAVYYCRYVHYAAGYGVDIWGQGTTVTVSS VL 2: DIVMTQSPLSLPVTPGEPASISCRSSQPLVHSNRNTYLHWYQQKPGQAPRLLIYKVSNRFSGVPDRFSGSGSGTDFTLKISRVEAEDVGVYYCGQGTQVPYTFGQGTKLEIK | – | – | – | – | binds | binds

Next, values leading:

binding (human CLDN6 (Claudin-6) [1]) | binding (human CLDN6 (Claudin-6) [2]) | binding (human CLDN6 (Claudin-6) [3]) | binding (human CLDN6 (Claudin-6) [4]) | binding (human CLDN6 (Claudin-6) [5]) | binding (human CLDN6 (Claudin-6) [6]) | Binder
– | – | binds | binds | binds | binds | AH05/TR01 (bispecific antibody, V domains shown, IgG format by Fab arm exchange, silent Fc; also called anti-CLDN6/CD3 bispecific antibody AH05/TR01) VH 1: EVQVEQSGPELVKPGASVKISCKTSGYTFTEYTMHWVKQSHGKSLEWIGGINPNNGNTRYNQKFKGKATLTVDKSSSTAYMELRTLTSEDSAVYYCARCGDFDLFFFFAYWGQGTLVTVSA VL 1: DIVMTQSQKFMSTSVGDRVSVTCKASQNVGSNVAWYQQKPGQSPEGLISSASSRFSGVPDRFTGSGSGTDFTLTITNVQSEDLAEYFCQQYNSYPFTFGSGTELEIK VH 2: QVQLVESGGGVVQPGGSLRLSCAASGFTFSNAWMHWVRQAPGKGLEWVAQIKDKSQNYATYVAESVKGRFTISRADSKNSIYLQMNSLKTEDTAVYYCRYVHYAAGYGVDIWGQGTTVTVSS VL 2: DIVMTQSPLSLPVTPGEPASISCRSSQPLVHSNRNTYLHWYQQKPGQAPRLLIYKVSNRFSGVPDRFSGSGSGTDFTLKISRVEAEDVGVYYCGQGTQVPYTFGQGTKLEIK
– | – | binds | binds | – | – | CS2201 (bispecific antibody, V domains shown, Fab arm exchange, silent Fc; also called 25H/20L0532//TR01) VH 1: QVQLVESGGGVVQPGRSLRLSCAASGFTFSSYTMSWVRQAPGQGLEWMGTISSGGGRTYYPDSVKGRFTISRDNSKNTLYLQMNSLRAEDTAVYYCARGDYRYDGFAYWGQGTLVTVSS VL 1: DIQMTQSPSSLSASVGDRVTITCRASYNIDSYLAWYQQKPGKAPKLLIYYSTLLVDGVPSRFSGSRSGTDFTLTISSLQPEDFATYYCQHYYSIPYTFGQGTKLEIK VH 2: QVQLVESGGGVVQPGGSLRLSCAASGFTFSNAWMHWVRQAPGKGLEWVAQIKDKSQNYATYVAESVKGRFTISRADSKNSIYLQMNSLKTEDTAVYYCRYVHYAAGYGVDIWGQGTTVTVSS VL 2: DIVMTQSPLSLPVTPGEPASISCRSSQPLVHSNRNTYLHWYQQKPGQAPRLLIYKVSNRFSGVPDRFSGSGSGTDFTLKISRVEAEDVGVYYCGQGTQVPYTFGQGTKLEIK
